Laboratory results: PubChem BioAssay AID652243 (Drosophila RNAi Screening Center, 2013)
The screen tested about 24,000 reagents; this is an unselected part of those that have a named target and a result. Over the whole deposit, 246 (1%) are marked active. 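Plates not normalised; calls are printed but the firefly/Renilla ratio behind them is not deposited; fold cut for lowering reported inconsistently.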 Raw values vary from plate to plate and are shown uncorrected. Names joined by + are all predicted targets of the reagent. Reagent sequences are not shown. Not given: the amount of reagent.

Purpose: 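Fly regulators of androgen-dependent reporter output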 (primary screen)
System: Drosophila S2R+ cells
Knock-down reagent: long dsRNA against Drosophila genes
Timing: 72 h (48 h, then 24 h hormone)
Conditions: synthetic androgen R1881 at 10 nM for 24 h
Measured: 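Per-well raw luminescence of the androgen-driven firefly reporter and of the Renilla control, two replicates each, without normalisation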
Scale: firefly reporter light: higher = more light from androgen-responsive reporter; Renilla control light: higher = more constitutive control signal (cell number, transfection)
Active means: 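Across duplicate plates, a knock-down whose log firefly/Renilla ratio shifted a set fold down or up from the GFP/LacZ control mean was a hit; the downward cut appears as both 1.5 and 3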
Meaning of the calls: active = hit: reporter lowered or raised; inactive = no hit

target	amplicon	firefly reporter light, replicate 1	firefly reporter light, replicate 2	Renilla control light, replicate 1	Renilla control light, replicate 2	outcome
NijC	DRSC14851	78802	1.32e5	1.77e6	1.82e6	inactive
NijC	DRSC29054	5.53e5	5.29e5	1.73e6	1.17e6	inactive
CG13032	DRSC09912	3.12e5	2.19e5	2.23e6	1.73e6	inactive
ort	DRSC16240	2.15e5	3.67e5	2.81e6	3.17e6	inactive
Best2	DRSC09712	1.04e5	1.24e5	1.06e6	1.66e6	inactive
l(3)L1231	DRSC16323	26496	1.01e5	3.25e5	3.75e5	inactive
Tpl94D	DRSC13593	76614	69495	1.10e5	1.26e5	inactive
CG8854	DRSC07288	8.40e5	5.83e5	1.55e6	1.40e6	inactive
CG8854	DRSC24639	8.17e5	7.64e5	8.65e5	9.65e5	inactive
CG17726	DRSC15255	6.64e5	7.06e5	3.53e6	4.10e6	inactive
CG33223	DRSC17572	7.81e5	8.52e5	1.17e6	1.08e6	inactive
CG33223	DRSC26875	3.71e5	3.60e5	1.14e6	8.83e5	inactive
Art8	DRSC02530	2.16e5	2.63e5	1.53e6	1.63e6	inactive
CG8777	DRSC07263	1.12e6	1.33e6	1.15e6	1.07e6	inactive
Fibp	DRSC11031	26483	36047	3.58e5	2.93e5	inactive
Fibp	DRSC26529	3.41e5	3.46e5	5.47e5	7.94e5	inactive
CG13978	DRSC14720	1.91e5	2.15e5	1.99e6	2.97e6	inactive
SdhD	DRSC14215	1.88e5	2.45e5	2.95e6	2.74e6	inactive
M6	DRSC11869	2.69e5	2.09e5	2.35e6	2.25e6	inactive
CG30154	DRSC05889	1.03e5	1.80e5	3.76e5	5.67e5	inactive
CG30154	DRSC26172	3.59e5	3.00e5	7.99e5	7.68e5	inactive
Sr-CIII	DRSC22262	7.40e5	8.08e5	2.34e6	1.82e6	inactive
CG14857	DRSC14981	1.12e5	1.29e5	2.27e6	2.50e6	inactive
twr	DRSC12491	44992	50708	1.13e6	8.30e5	inactive
CG34304 (retired record)	DRSC38821	9.54e5	8.19e5	2.00e6	1.64e6	inactive
CG33981 + fab1	DRSC07412	3.82e5	3.56e5	5.97e5	5.19e5	inactive
CG33981 + fab1	DRSC28045	5.10e5	3.37e5	2.11e6	1.42e6	inactive
CG33981 + fab1	DRSC36797					inactive
CG33981 + fab1	DRSC36798					inactive
CG8476	DRSC16426	55142	76334	1.19e6	1.76e6	inactive
CG8476	DRSC27865	9.96e5	4.57e5	3.07e6	1.25e6	inactive
Mad	DRSC00759	83268	67674	8.33e5	8.42e5	inactive
MED31	DRSC23432	3.25e5	3.65e5	6.50e5	4.98e5	inactive
CtsK1	DRSC08742	2.80e5	2.24e5	2.96e6	2.49e6	inactive
CG32104	DRSC10127	3.21e5	2.94e5	2.61e6	2.81e6	inactive
CG32104	DRSC10128	3.27e5	2.81e5	2.65e6	2.81e6	inactive
CG2611	DRSC02710	9.56e5	1.16e6	1.86e6	2.60e6	inactive
CG2611	DRSC26640	3.79e5	3.15e5	7.83e5	7.97e5	inactive
CG42374 + Mettl5	DRSC11085	20441	40915	1.89e5	2.16e5	inactive
CG33688	DRSC37819	7.71e5	5.06e5	2.09e6	1.60e6	inactive
CG13231	DRSC06351	4.67e5	3.19e5	2.77e6	2.62e6	inactive
CG13231	DRSC26554	6.53e5	7.25e5	7.10e5	8.99e5	inactive
Tsp26A	DRSC03135	2.88e5	1.84e5	2.70e6	1.82e6	inactive
Ilp5	DRSC08998	2.54e5	1.92e5	2.89e5	2.02e5	inactive
CG4377	DRSC04467	1.73e6	4.52e5	2.31e6	1.04e6	inactive
CG4377	DRSC28406	4.93e5	5.53e5	7.91e5	1.45e6	inactive
MKP-4	DRSC19567	52166	65932	5.08e5	4.23e5	inactive
MKP-4	DRSC27673	3.17e5	2.25e5	4.20e5	5.40e5	inactive
MKP-4	DRSC36827					inactive
CG40298	DRSC22274	4.92e5	5.92e5	1.51e6	1.36e6	inactive
Brd7-9	DRSC03017	8.73e5	1.18e6	1.30e6	1.28e6	inactive
Brd7-9	DRSC29592	5.10e5	6.44e5	8.29e5	8.29e5	inactive
CG34345	DRSC02126	1.56e5	2.09e5	1.63e6	1.12e6	inactive
CG34345	DRSC37753	6.19e5	4.71e5	1.65e6	1.11e6	inactive
sals	DRSC14925	89360	1.08e5	4.40e5	4.46e5	inactive
sals	DRSC16113	1.16e5	1.50e5	1.79e6	1.89e6	inactive
sals	DRSC28473	3.55e5	1.01e6	7.05e5	1.47e6	inactive
CG3257	DRSC04351	1.14e6	2.98e5	1.42e6	8.01e5	inactive
CG3257	DRSC27446	3.19e5	3.08e5	5.08e5	7.60e5	inactive
Akh	DRSC08138	3.67e5	2.85e5	3.34e6	2.04e6	inactive
Akh	DRSC28433	2.54e5	5.13e5	4.40e5	1.16e6	inactive
wit	DRSC08741	9.74e5	9.22e5	1.62e6	1.35e6	inactive
wit	DRSC26091	2.77e5	4.28e5	5.60e5	8.13e5	active
wit	DRSC37034					inactive
NPF	DRSC17019	1.13e5	1.64e5	1.69e6	2.23e6	inactive
Claspin	DRSC08308	5.42e5	3.47e5	2.70e6	3.39e6	inactive
CG31789	DRSC01645	1.92e5	1.45e5	3.03e5	4.35e5	inactive
CG31789	DRSC25757	5.56e5	3.89e5	7.92e5	6.78e5	inactive
CG6118	DRSC23197	3.18e5	3.70e5	1.62e6	1.63e6	inactive
CG6118	DRSC29922	7.45e5	4.75e5	1.50e6	1.51e6	inactive
CG7695	DRSC16289	1.76e5	1.73e5	2.25e6	2.41e6	inactive
Ubc2	DRSC01137	3.00e5	3.69e5	3.04e5	3.41e5	inactive
Ubc2	DRSC03468	1.21e5	90150	1.15e6	8.35e5	inactive
Ubc2	DRSC29062	6.30e5	5.02e5	1.80e6	1.71e6	inactive

Not a retest: 5 of the entries above.
target	amplicon	firefly reporter light, replicate 1	firefly reporter light, replicate 2	Renilla control light, replicate 1	Renilla control light, replicate 2	outcome
CG34345	DRSC37753	6.19e5	4.71e5	1.65e6	1.11e6	inactive
sals	DRSC14925	89360	1.08e5	4.40e5	4.46e5	inactive
sals	DRSC16113	1.16e5	1.50e5	1.79e6	1.89e6	inactive
sals	DRSC28473	3.55e5	1.01e6	7.05e5	1.47e6	inactive
CG3257	DRSC04351	1.14e6	2.98e5	1.42e6	8.01e5	inactive
